This is an account of results in patent US4505853A (Ortho Pharmaceutical Corporation, priority 1983, dated 1985).

The data set in a line: general procedure: Boc solid-phase peptide synthesis; p-methylbenzhydrylamine resin (0.25-0.39 mmol/g); BOC-(Cl2Bzl)Tyr-resin ester (0.32 meq/g); dicyclohexylcarbodiimide/1-hydroxybenzotriazole. As to conditions: for isolated yield / final HPLC purity: whole synthesis.

“And” between values parts separate entries of the source, which are not always exact repeats. Identical values can stand only once.

As to “Arginyl-α-Aminoisobutyryl-Aspartyl-Valyl-Tyrosine amide”, the isolated yield is given as 50% yield.

On to “Boc(NO2^g)Arg-Pro-(Bzl^β)-Asp-Val-Tyr-NHCH3”, for which, for the setting “coupling step”, the step yield is on record as 83%.

“Nα-Acetyl-Arginyl-Prolyl-Aspartyl-Alanyl-Tyrosine”: the isolated yield is recorded as 55%.

Consider “Nα-Acetyl-Arginyl-Prolyl-Aspartyl-Glutamyl-Tyrosine”, for which the isolated yield is given as 53%.

Regarding “Nα-Acetyl-Arginyl-Prolyl-Aspartyl-Isoleucyl-Tyrosine”, the isolated yield turned out to be 65%.

As to “Nα-Acetyl-Arginyl-Prolyl-Aspartyl-Valyl-Tyrosine-N-Methylamide”, the isolated yield was found to be 49% and the “final HPLC purity” value was 92% by HPLC.

“Nα-Formyl-Arginyl-Prolyl-Aspartyl-Valyl-Tyrosine” gave an isolated yield of 71%.

For “Nα-Succinoyl-Arginyl-Prolyl-Aspartyl-Valyl-Tyrosine”, the isolated yield is 78%.

Take “Nα-acetyl-Arginyl-Prolyl-Aspartyl-Valyl-Tyrosine amide”: the “final HPLC purity” value is recorded as “greater than 99%”.

As for “Nα-acetyl-D-Arginyl-Prolyl-Aspartyl-Valyl-Tyrosine Amide”, the “final HPLC purity” value (run 1) is 98.8% and 98.4% and 97.3%.
